Here are results for four sequences from PMC6718989.

pKd: −log10 of the molar value. For some of these results: No signal at the amounts used counts as a negative. For at least one entry, the source does not settle the construct or the ends of the probe.

For data set [1], the system named is human alpha-thrombin, cNL-B48 conjugate (Homo sapiens). The experiment in a line: switchSENSE. The note with it: 140 mM KCl, thrombin immobilized, 10 mM Tris-HCl pH 7.4, 140 mM XCl (K, Na, NH4 or Li), 0.05% Tween 20, 50 uM EDTA, 50 uM EGTA, 25 C, flow 2000 uL/min, commercial protein, protein details: covalently amine-coupled to 5' end of cNL-B48 DNA.
For data set [2], the system named is human alpha-thrombin (Homo sapiens). The experiment in a line: switchSENSE. Particulars: 50 mM Tris, no added salt, non-specific binding at >= 125 nM thrombin; 10 mM Tris-HCl pH 7.4, 140 mM XCl (K, Na, NH4 or Li), 0.05% Tween 20, 50 uM EDTA, 50 uM EGTA, 25 C, flow 2000 uL/min; commercial protein; label: dye on immobilized strand; letters put together from the description.

A word on the pKd: it is the Kd on a negative log10 scale, so that one unit is a factor of ten. In data set [1] (kon 4.6e7 M-1s-1, koff 2.8e-1 s-1, folded or branched DNA), “GGTTGGTGTGGTTGGTTTATCAGCGTTCGATGCTTCCGACTAATCAGCCATATCAGCTTACGACTA [TBA (in solution)]” had a pKd of 8.21.
Take “GTGTGGTGTGTGTGGTTTATCAGCGTTCGATGCTTCCGACTAATCAGCCATATCAGCTTACGACTA [TBAsc (in solution)]”: the binding result in data set [1] (single-stranded DNA) is on record as “no binding”.
As to “TTTGGGTTAGGGTTAGGGTTAGGGTTTATCAGCGTTCGATGCTTCCGACTAATCAGCCATATCAGCTTACGACTA [HTA (in solution)]”, the binding result in data set [1] (folded or branched DNA) is reported as “no binding”.
As to “ATCAGCGTTCGATGCTTCCGACTAATCAGCCATATCAGCTTACGACTA (double strand) [dsDNA nanolever (NL-B48/cNL-B48)]”, the binding result in data set [2] is recorded as “binds”.
